Reference: article doi:10.1101/2022.02.10.479924
Results are given in words; binding and its absence hold for the method and conditions named. Binding seen in cells or lysates may run through a third protein. Some binding calls cover weakened binding; strength is not graded here.

Amino acid sequences for entries named in this document (tags omitted).
UniProt O75821: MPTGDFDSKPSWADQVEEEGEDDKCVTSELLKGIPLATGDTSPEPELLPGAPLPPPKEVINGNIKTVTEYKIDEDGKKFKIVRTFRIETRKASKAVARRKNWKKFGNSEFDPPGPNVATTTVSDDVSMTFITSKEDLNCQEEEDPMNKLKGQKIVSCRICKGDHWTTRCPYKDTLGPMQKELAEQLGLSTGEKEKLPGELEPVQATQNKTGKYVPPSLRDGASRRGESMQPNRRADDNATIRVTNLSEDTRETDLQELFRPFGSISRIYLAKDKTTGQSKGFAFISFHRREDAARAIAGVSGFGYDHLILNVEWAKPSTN
UniProt Q14152: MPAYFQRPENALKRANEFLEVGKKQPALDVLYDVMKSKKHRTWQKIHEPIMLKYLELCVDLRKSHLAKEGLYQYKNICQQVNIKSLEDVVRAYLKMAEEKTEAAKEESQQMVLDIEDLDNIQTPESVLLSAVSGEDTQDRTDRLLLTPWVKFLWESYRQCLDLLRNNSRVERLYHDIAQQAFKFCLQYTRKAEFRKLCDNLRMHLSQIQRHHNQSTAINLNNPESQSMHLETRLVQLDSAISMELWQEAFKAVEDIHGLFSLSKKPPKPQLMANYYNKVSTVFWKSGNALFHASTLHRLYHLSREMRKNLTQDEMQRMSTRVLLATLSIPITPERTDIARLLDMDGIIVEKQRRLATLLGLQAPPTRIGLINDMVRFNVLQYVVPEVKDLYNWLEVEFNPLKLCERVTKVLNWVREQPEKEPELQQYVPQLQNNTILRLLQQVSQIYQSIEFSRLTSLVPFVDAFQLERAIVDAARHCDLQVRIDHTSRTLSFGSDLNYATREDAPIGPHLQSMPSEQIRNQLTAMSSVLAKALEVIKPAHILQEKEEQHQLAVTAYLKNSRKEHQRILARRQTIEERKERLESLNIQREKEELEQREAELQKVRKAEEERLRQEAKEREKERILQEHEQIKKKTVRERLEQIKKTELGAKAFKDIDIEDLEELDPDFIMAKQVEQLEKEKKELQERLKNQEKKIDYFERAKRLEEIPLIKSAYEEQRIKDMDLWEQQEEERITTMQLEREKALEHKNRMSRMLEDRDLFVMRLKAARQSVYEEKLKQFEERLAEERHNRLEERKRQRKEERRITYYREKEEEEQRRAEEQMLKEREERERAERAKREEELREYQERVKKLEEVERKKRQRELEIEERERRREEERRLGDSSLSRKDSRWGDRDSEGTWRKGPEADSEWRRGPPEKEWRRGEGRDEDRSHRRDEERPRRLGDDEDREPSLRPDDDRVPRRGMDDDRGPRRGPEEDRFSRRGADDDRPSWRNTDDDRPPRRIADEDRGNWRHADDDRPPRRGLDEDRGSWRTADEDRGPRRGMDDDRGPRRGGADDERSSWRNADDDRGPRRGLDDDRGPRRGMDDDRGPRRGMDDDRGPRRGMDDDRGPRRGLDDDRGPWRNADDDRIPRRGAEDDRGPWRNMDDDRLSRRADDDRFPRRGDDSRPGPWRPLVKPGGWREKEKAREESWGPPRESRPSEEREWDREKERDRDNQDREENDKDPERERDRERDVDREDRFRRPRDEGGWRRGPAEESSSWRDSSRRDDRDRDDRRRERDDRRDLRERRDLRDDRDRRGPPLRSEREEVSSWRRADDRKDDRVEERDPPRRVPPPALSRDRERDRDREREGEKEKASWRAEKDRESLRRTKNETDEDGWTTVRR
UniProt Q04637: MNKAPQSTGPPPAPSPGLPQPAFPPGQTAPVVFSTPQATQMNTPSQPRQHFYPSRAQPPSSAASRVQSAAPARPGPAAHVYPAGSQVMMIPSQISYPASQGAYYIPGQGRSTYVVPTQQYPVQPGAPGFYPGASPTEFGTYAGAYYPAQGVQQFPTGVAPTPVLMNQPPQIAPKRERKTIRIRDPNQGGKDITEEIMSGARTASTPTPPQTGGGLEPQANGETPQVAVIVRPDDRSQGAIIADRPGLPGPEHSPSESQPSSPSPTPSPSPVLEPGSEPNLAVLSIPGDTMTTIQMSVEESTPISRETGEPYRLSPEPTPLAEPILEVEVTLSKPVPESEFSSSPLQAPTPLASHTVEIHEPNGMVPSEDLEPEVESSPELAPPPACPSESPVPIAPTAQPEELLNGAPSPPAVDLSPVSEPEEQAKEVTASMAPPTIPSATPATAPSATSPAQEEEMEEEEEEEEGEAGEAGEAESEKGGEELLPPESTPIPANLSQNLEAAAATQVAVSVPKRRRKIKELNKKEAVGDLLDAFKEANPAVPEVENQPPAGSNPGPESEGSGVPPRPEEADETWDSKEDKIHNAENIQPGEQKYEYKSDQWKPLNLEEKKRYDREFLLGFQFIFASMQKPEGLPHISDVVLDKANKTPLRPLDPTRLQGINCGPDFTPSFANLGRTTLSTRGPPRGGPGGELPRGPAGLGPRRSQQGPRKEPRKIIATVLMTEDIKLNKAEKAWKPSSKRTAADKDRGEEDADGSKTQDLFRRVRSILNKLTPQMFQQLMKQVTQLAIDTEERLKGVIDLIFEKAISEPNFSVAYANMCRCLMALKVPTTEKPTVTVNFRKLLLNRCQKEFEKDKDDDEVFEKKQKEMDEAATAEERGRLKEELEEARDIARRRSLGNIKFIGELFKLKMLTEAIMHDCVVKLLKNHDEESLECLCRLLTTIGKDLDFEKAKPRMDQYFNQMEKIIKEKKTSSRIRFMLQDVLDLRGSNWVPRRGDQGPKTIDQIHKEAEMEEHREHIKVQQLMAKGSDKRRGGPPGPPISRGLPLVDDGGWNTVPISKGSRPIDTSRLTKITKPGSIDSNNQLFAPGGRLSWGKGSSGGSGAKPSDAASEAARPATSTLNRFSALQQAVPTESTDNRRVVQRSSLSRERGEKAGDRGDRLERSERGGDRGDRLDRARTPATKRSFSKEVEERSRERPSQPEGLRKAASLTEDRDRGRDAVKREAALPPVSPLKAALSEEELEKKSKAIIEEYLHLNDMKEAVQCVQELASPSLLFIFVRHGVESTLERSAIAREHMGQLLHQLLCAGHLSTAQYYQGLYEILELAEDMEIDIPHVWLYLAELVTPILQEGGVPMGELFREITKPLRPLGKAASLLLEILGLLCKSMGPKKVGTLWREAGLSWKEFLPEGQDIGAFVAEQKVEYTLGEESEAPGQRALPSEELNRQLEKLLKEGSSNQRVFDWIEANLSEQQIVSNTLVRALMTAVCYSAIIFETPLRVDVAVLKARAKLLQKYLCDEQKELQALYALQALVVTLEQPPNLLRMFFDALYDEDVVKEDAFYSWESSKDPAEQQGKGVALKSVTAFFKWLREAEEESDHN
UniProt Q9Y520: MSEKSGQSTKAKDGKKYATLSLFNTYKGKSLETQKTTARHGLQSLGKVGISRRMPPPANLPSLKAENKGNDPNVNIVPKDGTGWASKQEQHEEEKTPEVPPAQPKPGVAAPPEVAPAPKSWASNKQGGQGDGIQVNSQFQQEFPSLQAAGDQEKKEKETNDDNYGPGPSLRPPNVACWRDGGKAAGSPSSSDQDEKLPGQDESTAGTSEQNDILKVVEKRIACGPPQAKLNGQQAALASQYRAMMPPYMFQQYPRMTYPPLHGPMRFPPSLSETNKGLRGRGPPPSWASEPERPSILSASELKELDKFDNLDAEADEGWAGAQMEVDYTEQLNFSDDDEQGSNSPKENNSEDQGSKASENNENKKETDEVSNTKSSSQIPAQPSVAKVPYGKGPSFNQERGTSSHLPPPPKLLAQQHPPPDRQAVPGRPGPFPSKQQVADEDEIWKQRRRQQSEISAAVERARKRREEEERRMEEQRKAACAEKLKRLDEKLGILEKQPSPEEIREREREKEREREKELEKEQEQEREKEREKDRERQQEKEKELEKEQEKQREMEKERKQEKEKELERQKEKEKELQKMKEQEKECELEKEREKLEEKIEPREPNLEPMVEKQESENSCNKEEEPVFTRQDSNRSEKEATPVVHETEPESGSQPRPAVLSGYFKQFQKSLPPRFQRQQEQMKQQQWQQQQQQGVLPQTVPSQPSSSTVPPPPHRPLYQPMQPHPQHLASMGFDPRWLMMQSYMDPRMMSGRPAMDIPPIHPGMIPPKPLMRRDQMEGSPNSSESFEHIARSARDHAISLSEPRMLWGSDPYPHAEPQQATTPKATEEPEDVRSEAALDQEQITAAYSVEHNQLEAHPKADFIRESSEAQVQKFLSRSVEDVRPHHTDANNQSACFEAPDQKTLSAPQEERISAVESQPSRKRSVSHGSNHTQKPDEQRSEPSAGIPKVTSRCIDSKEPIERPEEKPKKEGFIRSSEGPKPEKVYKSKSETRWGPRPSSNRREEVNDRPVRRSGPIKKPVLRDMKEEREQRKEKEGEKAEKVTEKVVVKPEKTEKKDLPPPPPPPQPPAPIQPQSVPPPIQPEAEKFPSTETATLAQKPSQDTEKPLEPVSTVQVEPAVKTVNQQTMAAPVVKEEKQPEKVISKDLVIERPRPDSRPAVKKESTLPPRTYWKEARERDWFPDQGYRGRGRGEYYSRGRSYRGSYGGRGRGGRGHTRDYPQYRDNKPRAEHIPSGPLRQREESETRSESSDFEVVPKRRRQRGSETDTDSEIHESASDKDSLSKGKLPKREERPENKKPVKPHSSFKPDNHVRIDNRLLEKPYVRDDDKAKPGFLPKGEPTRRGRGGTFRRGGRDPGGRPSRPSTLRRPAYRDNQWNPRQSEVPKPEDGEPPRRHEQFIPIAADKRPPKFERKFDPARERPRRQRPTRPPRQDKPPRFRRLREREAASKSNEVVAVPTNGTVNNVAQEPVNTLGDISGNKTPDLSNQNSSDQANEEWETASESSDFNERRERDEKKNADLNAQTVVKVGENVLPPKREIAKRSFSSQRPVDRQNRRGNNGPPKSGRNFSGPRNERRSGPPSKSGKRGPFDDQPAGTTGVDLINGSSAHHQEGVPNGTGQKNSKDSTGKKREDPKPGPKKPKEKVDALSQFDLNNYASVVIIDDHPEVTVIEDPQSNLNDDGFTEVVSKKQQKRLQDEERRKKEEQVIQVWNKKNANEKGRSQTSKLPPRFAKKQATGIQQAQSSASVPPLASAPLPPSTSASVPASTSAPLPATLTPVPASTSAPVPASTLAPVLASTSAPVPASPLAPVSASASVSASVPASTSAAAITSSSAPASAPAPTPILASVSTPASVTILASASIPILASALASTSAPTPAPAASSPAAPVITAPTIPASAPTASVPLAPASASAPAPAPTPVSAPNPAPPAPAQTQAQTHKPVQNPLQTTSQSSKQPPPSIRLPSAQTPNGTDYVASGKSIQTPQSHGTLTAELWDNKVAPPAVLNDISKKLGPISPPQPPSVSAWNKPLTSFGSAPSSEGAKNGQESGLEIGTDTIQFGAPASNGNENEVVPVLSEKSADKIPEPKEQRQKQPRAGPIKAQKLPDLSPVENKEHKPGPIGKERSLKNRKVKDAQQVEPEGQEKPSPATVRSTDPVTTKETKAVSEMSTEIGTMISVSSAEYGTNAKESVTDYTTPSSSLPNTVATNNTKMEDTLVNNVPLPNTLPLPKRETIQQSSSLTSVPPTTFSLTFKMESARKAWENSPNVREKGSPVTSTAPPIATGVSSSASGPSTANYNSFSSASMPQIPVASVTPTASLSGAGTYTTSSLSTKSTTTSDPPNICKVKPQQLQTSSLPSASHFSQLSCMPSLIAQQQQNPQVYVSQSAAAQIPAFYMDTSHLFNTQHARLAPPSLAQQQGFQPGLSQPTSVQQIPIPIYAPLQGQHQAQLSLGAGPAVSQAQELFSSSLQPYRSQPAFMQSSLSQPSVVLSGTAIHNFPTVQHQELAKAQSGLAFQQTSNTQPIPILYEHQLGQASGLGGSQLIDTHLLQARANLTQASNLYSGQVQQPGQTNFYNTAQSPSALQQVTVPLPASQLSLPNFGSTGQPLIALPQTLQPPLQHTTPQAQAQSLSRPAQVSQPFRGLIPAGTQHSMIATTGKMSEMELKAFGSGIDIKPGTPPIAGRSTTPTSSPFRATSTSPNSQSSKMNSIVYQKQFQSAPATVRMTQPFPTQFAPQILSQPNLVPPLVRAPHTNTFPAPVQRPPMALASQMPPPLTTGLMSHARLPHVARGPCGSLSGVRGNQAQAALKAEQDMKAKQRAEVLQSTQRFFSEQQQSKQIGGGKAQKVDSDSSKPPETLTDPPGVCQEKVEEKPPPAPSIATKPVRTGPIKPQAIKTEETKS

Columns and labels:
[1] = biological target: G subunit of the eIF3 complex (eIF3G) (human (endogenous in HEK293T)) (UniProt O75821); experiment: cross-linking
[2] = biological target: eIF3A (human (endogenous in HEK293T)) (UniProt Q14152); experiment: cross-linking

Substance	binding [1]	binding [2]
eIF4G1 (subunit of the eIF4F complex) (from UniProt Q04637 1-1599)	binds	
stress granule protein PRC2C (from UniProt Q9Y520 1-2896)		binds
